In publication PMC7674646, “Structural and Functional Analyses of the Transcription Repressor DgoR From Escherichia coli Reveal a Divalent Metal-Containing D-Galactonate Binding Pocket” (Frontiers in Microbiology, 2020):
Construct, isoform or probe ends are uncertain for at least one entry. The comparison behind a weaker result is the experiment's own reference, which may not be listed here.

Amino acid sequences for entries named in this document (tags omitted). A change or cut given only in a name is not applied to a line headed by its entry.
UniProt P31460: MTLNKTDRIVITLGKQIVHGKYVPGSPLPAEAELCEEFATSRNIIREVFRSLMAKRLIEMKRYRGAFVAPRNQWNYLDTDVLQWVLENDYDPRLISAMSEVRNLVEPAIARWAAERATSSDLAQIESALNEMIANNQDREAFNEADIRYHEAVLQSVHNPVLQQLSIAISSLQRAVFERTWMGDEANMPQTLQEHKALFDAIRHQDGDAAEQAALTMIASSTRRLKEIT

Biological target: DgoR (EcoDgoR) WT (Escherichia coli) (UniProt P31460)
Experiment: EMSA
Conditions: 0.5 mM D-galactonate, EMSA: 25 mM Tris-HCl pH 8.0, 50 mM KCl, 2.5 mM MgCl2, 5% glycerol, 1 mM DTT, 100 ug/mL salmon sperm DNA, 100 ng Cy5 probe in 20 ul, 25 C 20 min, native PAGE at 4 C, recombinant protein, residues 1-229, protein details: His (pET28a), label: Cy5, probe letters rebuilt from the primers and the genome

TGTAAAACGACGGCCAGTGCATTGTTCTTTTTGTGATCTAAATTGTAGTACAACAATATAAGTTTGTACTACATTACACGCACGGCAAACGCGAACGTCATCACGCTGGTACTACAAAGTTGCCGCGTTATGCATCGATCGGGGTAAAGTAGAGAAGAACATACAGAGCACAAGGACTCTCCATGACTCTCAATAAAACCGATCGCATTGTC (double strand) [dgo cis-acting element (promoter region)]
binds more weakly: binding result | binding result (EDTA-treated protein, Ca2+) | binding result (EDTA-treated protein, Mg2+) | binding result (EDTA-treated protein, Zn2+)
